Results on one molecule are retold here after publication PMC12104861, “Structural and mechanistic basis for the regulation of the chloroplast signal recognition particle by (p)ppGpp” (Febs Letters, 2025).

No constants are given. Whether binding was seen depends on the method and setting.

This assay concerns the target T1, NG domain of the chloroplast SRP receptor (cp)FtsY, (cp)FtsY-NG (Arabidopsis thaliana) (UniProt O80842).
T1 sequence: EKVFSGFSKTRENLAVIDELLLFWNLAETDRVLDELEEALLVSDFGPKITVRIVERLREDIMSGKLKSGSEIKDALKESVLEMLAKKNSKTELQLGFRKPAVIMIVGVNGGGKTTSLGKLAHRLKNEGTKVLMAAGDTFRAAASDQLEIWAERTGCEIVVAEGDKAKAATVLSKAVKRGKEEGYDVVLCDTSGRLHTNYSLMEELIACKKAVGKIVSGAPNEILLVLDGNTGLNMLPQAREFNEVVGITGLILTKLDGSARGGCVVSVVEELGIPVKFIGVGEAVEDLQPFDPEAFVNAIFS
The experiment in a line: SEC; analytical SEC, Superdex 200 Increase 10/300 GL; 100 uM of each protein in buffer C, without GppNHp; both purified. For orientation: Size exclusion chromatography separates by hydrodynamic size, large species first.

B1: chloroplast signal recognition particle 54 kDa protein, (cp)SRP54 (protein, UniProt P37107 79-564)
chain: GQLTGGLEAAWSKLKGEEVLTKDNIAEPMRDIRRALLEADVSLPVVRRFVQSVSDQAVGMGVIRGVKPDQQLVKIVHDELVKLMGGEVSELQFAKSGPTVILLAGLQGVGKTTVCAKLACYLKKQGKSCMLIAGDVYRPAAIDQLVILGEQVGVPVYTAGTDVKPADIAKQGLKEAKKNNVDVVIMDTAGRLQIDKGMMDELKDVKKFLNPTEVLLVVDAMTGQEAAALVTTFNVEIGITGAILTKLDGDSRGGAALSVKEVSGKPIKLVGRGERMEDLEPFYPDRMAGRILGMGDVLSFVEKATEVMRQEDAEDLQKKIMSAKFDFNDFLKQTRAVAKMGSMTRVLGMIPGMGKVSPAQIREAEKNLLVMEAMIEVMTPEERERPELLAESPERRKRIAKDSGKTEQQVSALVAQIFQMRVKMKNLMGVMEGGSIPALSGLEDALKAEQKAPPGTARRKRKADSRKKFVESASSKPGPRGFGSGN
As for B1, the binding entry is “no binding (condition: without GppNHp)”.
